From PMC12652325 come the findings set out here.

Protein sequences, listed by entry. Tags and fused reporters are not part of them.
UniProt P51608: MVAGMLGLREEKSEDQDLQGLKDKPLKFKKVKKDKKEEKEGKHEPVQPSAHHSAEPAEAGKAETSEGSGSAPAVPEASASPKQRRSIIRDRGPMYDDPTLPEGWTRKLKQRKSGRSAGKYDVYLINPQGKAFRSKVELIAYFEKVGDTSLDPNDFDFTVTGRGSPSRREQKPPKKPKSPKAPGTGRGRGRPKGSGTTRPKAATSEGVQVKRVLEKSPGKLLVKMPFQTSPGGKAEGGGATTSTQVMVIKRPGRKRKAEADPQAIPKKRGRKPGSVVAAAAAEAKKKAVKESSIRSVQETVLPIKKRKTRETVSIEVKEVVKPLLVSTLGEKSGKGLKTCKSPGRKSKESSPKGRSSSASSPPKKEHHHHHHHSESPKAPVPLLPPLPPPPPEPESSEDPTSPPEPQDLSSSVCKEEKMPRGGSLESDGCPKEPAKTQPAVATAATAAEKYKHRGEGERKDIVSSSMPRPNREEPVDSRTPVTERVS

Results are given in words; binding and its absence hold for the method and conditions named. Binding seen in cells or lysates may run through a third protein. Some entries that bind do so weakly or less than the wild type. For some assays here: Tags and fused reporters may be left off the sequences shown.

For assay [1], the target named is FLAG-tagged MeCP2, full length (human) (UniProt P51608). Put plainly: co-IP; in vitro binding assay: in vitro transcribed and translated FLAG-tagged MeCP2 (or fragment) incubated with one HA-tagged SEC subunit in 250 ul IP buffer, 1 hour, 4°C; IP with FLAG antibody-conjugated beads, four washes; blots for HA and FLAG.
The target in assay [2] is endogenous MeCP2 (HEK293T) (human (endogenous in HEK293T)) (UniProt P51608). Put plainly: co-IP; endogenous MeCP2 immunoprecipitated (MeCP2 antibody Sigma-Aldrich M6818 on Dynabead G, overnight, 4°C) from HEK293T lysate in IP buffer (10 mM Hepes pH 7.9, 3 mM MgCl2, 5 mM KCl, 140 mM NaCl, 0.1 mM EDTA, 0.5% NP-40, nuclease); blots for endogenous partners; normal mouse IgG as control; also in cells with non-targeting, ENL or ELL2 short hairpin RNA.

In assay [3] the target is C-terminal yellow fluorescent protein (YFP)-tagged MeCP2 (human) (UniProt P51608). The assay is described as follows: split reporter; BiFC: MeCP2-cYFP coexpressed with nYFP-tagged proteins in HEK293T cells (0.5 ug pBiFC constructs, Lipofectamine 3000, 48 hours); YFP read by FACS and by confocal microscopy.

B1: hemagglutinin (HA)-tagged AFF4 (protein, UniProt Q9UHB7 1-1163)
chain: MNREDRNVLRMKERERRNQEIQQGEDAFPPSSPLFAEPYKVTSKEDKLSSRIQSMLGNYDEMKDFIGDRSIPKLVAIPKPTVPPSADEKSNPNFFEQRHGGSHQSSKWTPVGPAPSTSQSQKRSSGLQSGHSSQRTSAGSSSGTNSSGQRHDRESYNNSGSSSRKKGQHGSEHSKSRSSSPGKPQAVSSLNSSHSRSHGNDHHSKEHQRSKSPRDPDANWDSPSRVPFSSGQHSTQSFPPSLMSKSNSMLQKPTAYVRPMDGQESMEPKLSSEHYSSQSHGNSMTELKPSSKAHLTKLKIPSQPLDASASGDVSCVDEILKEMTHSWPPPLTAIHTPCKTEPSKFPFPTKESQQSNFGTGEQKRYNPSKTSNGHQSKSMLKDDLKLSSSEDSDGEQDCDKTMPRSTPGSNSEPSHHNSEGADNSRDDSSSHSGSESSSGSDSESESSSSDSEANEPSQSASPEPEPPPTNKWQLDNWLNKVNPHKVSPASSVDSNIPSSQGYKKEGREQGTGNSYTDTSGPKETSSATPGRDSKTIQKGSESGRGRQKSPAQSDSTTQRRTVGKKQPKKAEKAAAEEPRGGLKIESETPVDLASSMPSSRHKAATKGSRKPNIKKESKSSPRPTAEKKKYKSTSKSSQKSREIIETDTSSSDSDESESLPPSSQTPKYPESNRTPVKPSSVEEEDSFFRQRMFSPMEEKELLSPLSEPDDRYPLIVKIDLNLLTRIPGKPYKETEPPKGEKKNVPEKHTREAQKQASEKVSNKGKRKHKNEDDNRASESKKPKTEDKNSAGHKPSSNRESSKQSAAKEKDLLPSPAGPVPSKDPKTEHGSRKRTISQSSSLKSSSNSNKETSGSSKNSSSTSKQKKTEGKTSSSSKEVKEKAPSSSSNCPPSAPTLDSSKPRRTKLVFDDRNYSADHYLQEAKKLKHNADALSDRFEKAVYYLDAVVSFIECGNALEKNAQESKSPFPMYSETVDLIKYTMKLKNYLAPDATAADKRLTVLCLRCESLLYLRLFKLKKENALKYSKTLTEHLKNSYNNSQAPSPGLGSKAVGMPSPVSPKLSPGNSGNYSSGASSASASGSSVTIPQKIHQMAASYVQVTSNFLYATEIWDQAEQLSKEQKEFFAELDKVMGPLIFNASIMTDLVRYTRQGLHWLRQDAKLIS
B1: in assay [1], the binding result is listed as “binds”.

B2: endogenous AFF4 (HEK293T) (protein, UniProt Q9UHB7 1-1163)
chain: B1 chain
Consider B2, for which the binding result in assay [2] is listed as “binds”.

B3: N-terminal YFP-tagged AFF4 (protein, UniProt Q9UHB7 1-1163)
chain: B1 chain
With B3, the binding entry in assay [3] is reported as “binds”.

B4: N-terminal YFP-tagged ENL (protein, UniProt Q03111 1-559)
chain: MDNQCTVQVRLELGHRAQLRKKPTTEGFTHDWMVFVRGPEQCDIQHFVEKVVFWLHDSFPKPRRVCKEPPYKVEESGYAGFIMPIEVHFKNKEEPRKVCFTYDLFLNLEGNPPVNHLRCEKLTFNNPTTEFRYKLLRAGGVMVMPEGADTVSRPSPDYPMLPTIPLSAFSDPKKTKPSHGSKDANKESSKTSKPHKVTKEHRERPRKDSESKSSSKELEREQAKSSKDTSRKLGEGRLPKEEKAPPPKAAFKEPKMALKETKLESTSPKGGPPPPPPPPPRASSKRPATADSPKPSAKKQKKSSSKGSRSAPGTSPRTSSSSSFSDKKPAKDKSSTRGEKVKAESEPREAKKALEVEESNSEDEASFKSESAQSSPSNSSSSSDSSSDSDFEPSQNHSQGPLRSMVEDLQSEESDEDDSSSGEEAAGKTNPGRDSRLSFSDSESDNSADSSLPSREPPPPQKPPPPNSKVSGRRSPESCSKPEKILKKGTYDKAYTDELVELHRRLMALRERNVLQQIVNLIEETGHFNVTNTTFDFDLFSLDETTVRKLQSCLEAVAT
For the molecule B4, the binding entry in assay [3] was “binds”.

B5: Ppp6c-nYFP (protein, UniProt Q9CQR6 1-305)
chain: MAPLDLDKYVEIARQCKYLPENDLKRLCDYVCDLLLEESNVQPVSTPVTVCGDIHGQFYDLCELFRTGGQVPDTNYIFMGDFVDRGYYSLETFTYLLALKAKWPDRITLLRGNHESRQITQVYGFYDECQTKYGNANAWRYCTKVFDMLTVAALIDEQILCVHGGLSPDIKTLDQIRTIERNQEIPHKGAFCDLVWSDPEDVDTWAISPRGAGWLFGAKVTNEFVHINNLKLICRAHQLVHEGYKFMFDEKLVTVWSAPNYCYRCGNIASIMVFKDVNTREPKLFRAVPDSERVIPPRTTTPYFL
On to B5, for which the binding result in assay [3] is reported as “no binding”.
